Article PMC4666357
Results are given in words; binding and its absence hold for the method and conditions named. Binding seen in cells or lysates may run through a third protein. Here binding means that the protein was enriched with, or labelled near, the bait; the list need not be complete. Where a sequence is shown, tags or fusion partners need not be part of it.

Target: T1, FLAG-tagged CARF (collaborator of alternative reading frame protein) (human), Q9NXV6
T1 chain: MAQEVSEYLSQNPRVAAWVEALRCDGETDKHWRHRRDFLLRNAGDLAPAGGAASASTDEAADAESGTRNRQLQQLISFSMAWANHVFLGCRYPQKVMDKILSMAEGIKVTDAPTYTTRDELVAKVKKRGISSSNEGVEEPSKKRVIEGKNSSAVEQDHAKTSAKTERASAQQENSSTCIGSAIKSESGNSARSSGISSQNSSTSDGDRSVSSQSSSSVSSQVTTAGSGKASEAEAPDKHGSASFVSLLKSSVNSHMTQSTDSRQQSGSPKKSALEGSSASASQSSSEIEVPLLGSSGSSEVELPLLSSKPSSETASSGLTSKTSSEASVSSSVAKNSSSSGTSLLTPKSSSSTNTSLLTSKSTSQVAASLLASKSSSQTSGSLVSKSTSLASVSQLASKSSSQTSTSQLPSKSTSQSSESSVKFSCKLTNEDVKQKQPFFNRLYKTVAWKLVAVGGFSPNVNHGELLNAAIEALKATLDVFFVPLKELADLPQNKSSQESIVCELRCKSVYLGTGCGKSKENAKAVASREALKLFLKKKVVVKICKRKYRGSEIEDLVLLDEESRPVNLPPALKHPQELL
Assay: affinity purification with mass spectrometry; FLAG–CARF complexes from TOCARF cell extract (1 ng/ml doxycycline, 48 h; buffer A: 50 mM Tris-HCl pH 8.0, 150 mM NaCl, 0.5% IGEPAL CA-630) on anti-FLAG M2 agarose, 4 h at 4°C, eluted with FLAG peptide; SDS–PAGE, silver staining, LC-MS/MS; band confirmed by immunoblot with anti-XRN2
Details: remark: other sources report otherwise

binding: binds
B1: 5′-3′ exoribonuclease 2 (XRN2), endogenous, Q9H0D6-1 1-950 (enzyme)
chain: MGVPAFFRWLSRKYPSIIVNCVEEKPKECNGVKIPVDASKPNPNDVEFDNLYLDMNGIIHPCTHPEDKPAPKNEDEMMVAIFEYIDRLFSIVRPRRLLYMAIDGVAPRAKMNQQRSRRFRASKEGMEAAVEKQRVREEILAKGGFLPPEEIKERFDSNCITPGTEFMDNLAKCLRYYIADRLNNDPGWKNLTVILSDASAPGEGEHKIMDYIRRQRAQPNHDPNTHHCLCGADADLIMLGLATHEPNFTIIREEFKPNKPKPCGLCNQFGHEVKDCEGLPREKKGKHDELADSLPCAEGEFIFLRLNVLREYLERELTMASLPFTFDVERSIDDWVFMCFFVGNDFLPHLPSLEIRENAIDRLVNIYKNVVHKTGGYLTESGYVNLQRVQMIMLAVGEVEDSIFKKRKDDEDSFRRRQKEKRKRMKRDQPAFTPSGILTPHALGSRNSPGSQVASNPRQAAYEMRMQNNSSPSISPNTSFTSDGSPSPLGGIKRKAEDSDSEPEPEDNVRLWEAGWKQRYYKNKFDVDAADEKFRRKVVQSYVEGLCWVLRYYYQGCASWKWYYPFHYAPFASDFEGIADMPSDFEKGTKPFKPLEQLMGVFPAASGNFLPPSWRKLMSDPDSSIIDFYPEDFAIDLNGKKYAWQGVALLPFVDERRLRAALEEVYPDLTPEETRRNSLGGDVLFVGKHHPLHDFILELYQTGSTEPVEVPPELCHGIQGKFSLDEEAILPDQIVCSPVPMLRDLTQNTVVSINFKDPQFAEDYIFKAVMLPGARKPAAVLKPSDWEKSSNGRQWKPQLGFNRDRRPVHLDQAAFRTLGHVMPRGSGTGIYSNAAPPPVTYQGNLYRPLLRGQAQIPKLMSNMRPQDSWRGPPPLFQQQRFDRGVGAEPLLPWNRMLQTQNAAFQPNQYQMLAGPGGYPPRRDDRGGRQGYPREGRKYPLPPPSGRYNWN
